Survivor count and T/C data for 15 molecules are collected here from PubChem BioAssay AID214 (DTP/NCI, 2004).

The list is a part of this screen's results and no random one: it gathers tests that were run many times, whatever their T/C, doses with no T/C, and many T/C values between a quarter and a half above the control. Further doses and runs are listed elsewhere. T/C gives the treated animals as a percentage of the vehicle group. Schedule codes are those of the source, read here as Q, the interval in days (D) or hours (H), X, the number of doses. Some T/C values are followed by the survivors on the day toxicity was checked, most often the fifth; without a count, all were alive then. Some entries were tested several times; the results are listed from low to high. Signs of the kind (2×) stand for listed records that agree. Some entries give survivors of the animals treated and no T/C: the source files T/C as zero there, which appears to mark a toxic dose or a test without result, not a measured value. Survivors were counted at the toxicity check, usually on the fifth day, unless a day is given; later deaths do not show.

This test deals with B6C3F1 mice, colon carcinoma 38 s.c., T/C. The test can be described thus: NCI In Vivo Anticancer Drug Screen. Data for tumor model Colon Carcinoma 38 (subcutaneous) in B6C3F1 mice. The settings on record: T/C endpoint: median tumor weight (est.), schedule: Q07DX002 (ip), higher T/C = larger tumour; for T/C: evaluated on day 20. On the procedure: The antitumor activity of compounds was measured in mice bearing transplantable tumors. Survival or tumor size were measured and the results are expressed as the measurement made in the treated group (T) divided by the measurement made in the vehicle treated control group (C). The tumor model used in this assay is Colon Carcinoma 38 (subcutaneous) in B6C3F1 mice

Setting [1] is: dose: 200.0 mg/kg/injection, vehicle: saline with Tween-80.
Where [2] appears, read: dose: 400.0 mg/kg/injection, vehicle: saline with Tween-80.
[3] abbreviates: dose: 50.0 mg/kg/injection, vehicle: saline with Tween-80.
The mark [4] stands for this setting: dose: 40.0 mg/kg/injection, vehicle: sodium bicarbonate.
The mark [5] stands for this setting: dose: 60.0 mg/kg/injection, vehicle: sodium bicarbonate.
Where [6] appears, read: dose: 90.0 mg/kg/injection, vehicle: sodium bicarbonate.
[7] abbreviates: dose: 135.0 mg/kg/injection, vehicle: sodium bicarbonate.
[8] abbreviates: dose: 80.0 mg/kg/injection, vehicle: saline with Tween-80.
The mark [9] stands for this setting: dose: 160.0 mg/kg/injection, vehicle: saline with Tween-80.
[10] abbreviates: dose: 800.0 mg/kg/injection, vehicle: saline with Tween-80.
[11] abbreviates: dose: 100.0 mg/kg/injection, vehicle: saline.

As for `CCC(NC(N)=O)C(CC)NC(N)=O` (stereo unspecified), the survivor count is, setting by setting: under setting [1], 1 of 10 on day 20; under setting [2], 0 of 10 on day 20.

With `COC12C(COC(=O)NCCO)C3=C(C(=O)C(C)=C(N)C3=O)N1CC1NC12` (stereo unspecified), the survivor count was 4 of 10 on day 20 (dose: 100.0 mg/kg/injection, vehicle: Klucel (hydroxypropylcellulose) (HPC)) and 0 of 10 on day 20 (dose: 200.0 mg/kg/injection, vehicle: Klucel (hydroxypropylcellulose) (HPC)).

`CCN(CC)CCNc1ccc(C)c2sc3ccccc3c(=O)c12`: the survivor count (dose: 400.0 mg/kg/injection, vehicle: suspension in saline) is reported as 5 of 10 on day 20.

Turning to `O=C(COc1cccc2c(=O)cc(-c3ccccc3)oc12)OCCN1CCOCC1`, the T/C (dose: 400.0 mg/kg/injection, vehicle: saline) was 125 % of control [9 of 10 alive on day 20].

For `CCCCCc1cc(O)c2c(c1)OC(C)(C)[C@@H]1CCC(C)=C[C@@H]21`, for the setting “dose: 100.0 mg/kg/injection, vehicle: other”, the T/C was 130 % of control [9 of 10 alive on day 20]. In addition, the survivor count is, setting by setting: (dose: 800.0 mg/kg/injection, vehicle: other) 4 of 10 on day 20; (dose: 1600.0 mg/kg/injection, vehicle: other) 0 of 10 on day 20.

`S=C(NCNC(=S)c1ccncc1)c1ccncc1`: the T/C (dose: 1600.0 mg/kg/injection, vehicle: saline with Tween-80) was 128 % of control [9 of 10 alive on day 20].

As for `CC(=O)OC1C(O)C(C)OC(OC2C(OC(=O)C3CCC4C(C3)OC3(CC(OC(=O)/C=C/c5ccccc5)C(C)CO3)C43CO3)OC(C)C(O)C2OC(C)=O)C1O` (stereo unspecified), the survivor count (dose: 120.0 mg/kg/injection, vehicle: distilled water + Tween-80) was 0 of 10 on day 20.

In the case of `CC(=O)N(C)O`, the T/C under setting [3] is 144 % of control.

As to `CN(Cc1cnc2nc(N)nc(N)c2n1)c1ccc(C(=O)N[C@@H](CCC(=O)O)C(=O)O)cc1`, the T/C was 20 [9 of 10 alive on day 20], 68 [7 of 10 alive on day 20], 81, 83, 87 [9 of 10 alive on day 20], 96, 96 [8 of 10 alive on day 20], 105, 124, 126, 177 % of control (dose: 26.0 mg/kg/injection, vehicle: sodium bicarbonate); 44 [9 of 10 alive on day 20], 72 [9 of 10 alive on day 20], 91, 94 [9 of 10 alive on day 20], 111, 123, 124 % of control under setting [4]; 53 [9 of 10 alive on day 20], 65 [9 of 10 alive on day 20], 86, 92, 101 % of control [8 of 10 alive on day 20] under setting [5]; 81, 90, 100, 105 % of control under setting [6]; 17, 47, 76, 90 % of control [7 of 10 alive on day 20] under setting [7]. Also, the survivor count is reported as 2 of 10 on day 20, 4 of 10 on day 20, 5 of 10 on day 20 under setting [4]; 0 of 10 on day 20, 2 of 10 on day 20, 3 of 10 on day 20, 6 of 10 on day 20 under setting [5]; 0 of 10 on day 20, 2 of 9 on day 20, 3 of 10 on day 20, 6 of 10 on day 20 under setting [6]; 0 of 10 on day 20, 0 of 9 on day 20, 3 of 10 on day 20 under setting [7].

`Nc1nc(=S)c2ncn(C3CC(O)C(CO)O3)c2[nH]1` (stereo unspecified): the T/C was 12, 24 [9 of 10 alive on day 20], 31, 35, 45, 55 (2×), 56, 108, 181 % of control (dose: 5.0 mg/kg/injection, vehicle: saline with Tween-80); 10, 11, 14, 27, 36 (2×), 52, 55, 88, 98 % of control (dose: 10.0 mg/kg/injection, vehicle: saline with Tween-80); 12 (2×), 15, 27, 28, 35, 78, 79, 116 % of control [9 of 10 alive on day 20] (dose: 20.0 mg/kg/injection, vehicle: saline with Tween-80); 3, 5, 9, 10, 12, 14 (2×), 18, 51, 57 % of control (dose: 40.0 mg/kg/injection, vehicle: saline with Tween-80); 5 [8 of 10 alive on day 20], 6, 7, 15 (2×), 16, 22, 36 % of control [9 of 10 alive on day 20] under setting [8]; 1, 2, 5 [8 of 10 alive on day 20], 24 % of control [9 of 10 alive on day 20] under setting [9]. The survivor count is recorded as 6 of 10 on day 20 under setting [8] and 6 of 10 on day 20 under setting [9].

With `CCCCCCCCCCCCCCCCCCCCCC(=O)Nc1ccn(C2OC(CO)C(O)C2O)c(=O)n1` (stereo unspecified), under setting [10], the survivor count is given as 0 of 10 on day 20.

For the molecule `CCOC(=O)C(N)C[S][Sn]([CH3])([CH3])[Cl]` (stereo unspecified), the survivor count under setting [11] is reported as 0 of 10 on day 20.

Turning to `O=C(c1cccnc1)c1cc(-c2ccccn2)c(=O)n2ccccc12`, the T/C under setting [11] was 146 % of control and the T/C (dose: 1600.0 mg/kg/injection, vehicle: saline) was 145 % of control [8 of 10 alive on day 20].

`CN(C)c1nc(N(C)C)nc(N(C)C)n1`: the T/C reads like this: (dose: 25.0 mg/kg/injection, vehicle: saline with Tween-80) 138 % of control; under setting [3], 63, 77 [9 of 10 alive on day 20], 83, 96, 104, 106, 111, 113, 114, 178 % of control; (dose: 100.0 mg/kg/injection, vehicle: saline with Tween-80) 33, 68, 69, 89, 90 (2×), 97, 118, 137, 164 % of control; under setting [1], 47, 56 (2×), 58, 63 (2×), 72 [9 of 10 alive on day 20], 74 [9 of 10 alive on day 20], 77, 98 % of control; under setting [2], 26 [8 of 10 alive on day 20], 34 [9 of 10 alive on day 20], 35 [8 of 10 alive on day 20], 62, 63, 70, 72, 76 % of control [8 of 10 alive on day 20]. The survivor count under setting [2] is recorded as 3 of 10 on day 20.

As to `O=C(CCCCCCC(=O)ON1C(=O)CCC1=O)ON1C(=O)CCC1=O`, the T/C under setting [2] was 141 % of control. In addition, the survivor count under setting [10] is 0 of 10 on day 20.
